Consider nine compounds from PubChem BioAssay (EPA / NIEHS).

Sequences of proteins named here, by UniProt entry; tags and fusion partners are left off. A change or cut given only in a name is not applied to a line headed by its entry.
UniProt Q96RI1: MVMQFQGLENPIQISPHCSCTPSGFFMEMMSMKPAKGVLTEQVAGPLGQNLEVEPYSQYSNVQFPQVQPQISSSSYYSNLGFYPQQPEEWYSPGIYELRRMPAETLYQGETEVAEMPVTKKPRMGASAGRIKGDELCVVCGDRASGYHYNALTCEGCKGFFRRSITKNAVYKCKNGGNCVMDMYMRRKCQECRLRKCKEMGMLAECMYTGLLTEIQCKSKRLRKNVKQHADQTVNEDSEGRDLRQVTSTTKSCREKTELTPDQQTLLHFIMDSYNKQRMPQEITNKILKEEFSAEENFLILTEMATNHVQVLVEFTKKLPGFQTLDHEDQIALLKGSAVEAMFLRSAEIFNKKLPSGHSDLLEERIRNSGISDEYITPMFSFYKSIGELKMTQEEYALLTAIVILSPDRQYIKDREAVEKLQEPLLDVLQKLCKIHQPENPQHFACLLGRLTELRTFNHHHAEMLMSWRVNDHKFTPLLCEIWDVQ
UniProt P37231: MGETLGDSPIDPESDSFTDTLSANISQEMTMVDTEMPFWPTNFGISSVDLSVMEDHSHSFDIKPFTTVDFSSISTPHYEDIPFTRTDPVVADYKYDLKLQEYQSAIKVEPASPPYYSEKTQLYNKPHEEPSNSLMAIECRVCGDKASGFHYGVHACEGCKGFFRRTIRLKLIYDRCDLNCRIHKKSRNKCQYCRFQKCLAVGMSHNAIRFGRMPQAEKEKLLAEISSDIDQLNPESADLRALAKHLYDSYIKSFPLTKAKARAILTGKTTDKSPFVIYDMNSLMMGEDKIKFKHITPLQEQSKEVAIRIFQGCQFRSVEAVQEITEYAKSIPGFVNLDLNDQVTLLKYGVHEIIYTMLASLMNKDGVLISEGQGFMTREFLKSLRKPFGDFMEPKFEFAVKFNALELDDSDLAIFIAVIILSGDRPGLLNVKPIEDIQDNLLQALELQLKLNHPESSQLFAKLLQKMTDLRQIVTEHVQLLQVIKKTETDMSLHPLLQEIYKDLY
UniProt P03372, whole entry, looked up: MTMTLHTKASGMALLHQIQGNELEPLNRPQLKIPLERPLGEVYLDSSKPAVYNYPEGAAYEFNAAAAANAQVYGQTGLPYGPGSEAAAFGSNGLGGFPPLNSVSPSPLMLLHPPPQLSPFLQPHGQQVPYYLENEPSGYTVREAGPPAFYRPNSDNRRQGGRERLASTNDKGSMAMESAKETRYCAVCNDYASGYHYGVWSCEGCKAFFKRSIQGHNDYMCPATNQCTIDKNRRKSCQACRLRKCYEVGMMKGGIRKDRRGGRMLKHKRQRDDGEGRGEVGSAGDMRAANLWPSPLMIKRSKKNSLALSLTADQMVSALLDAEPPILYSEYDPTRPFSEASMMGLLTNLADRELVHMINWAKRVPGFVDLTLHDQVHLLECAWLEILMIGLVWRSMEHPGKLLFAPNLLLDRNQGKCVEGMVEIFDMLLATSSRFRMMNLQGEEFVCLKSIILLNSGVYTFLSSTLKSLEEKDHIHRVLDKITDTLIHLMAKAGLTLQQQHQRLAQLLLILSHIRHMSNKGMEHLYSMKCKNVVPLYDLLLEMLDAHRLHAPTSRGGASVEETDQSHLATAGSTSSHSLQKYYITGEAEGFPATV
UniProt P19793: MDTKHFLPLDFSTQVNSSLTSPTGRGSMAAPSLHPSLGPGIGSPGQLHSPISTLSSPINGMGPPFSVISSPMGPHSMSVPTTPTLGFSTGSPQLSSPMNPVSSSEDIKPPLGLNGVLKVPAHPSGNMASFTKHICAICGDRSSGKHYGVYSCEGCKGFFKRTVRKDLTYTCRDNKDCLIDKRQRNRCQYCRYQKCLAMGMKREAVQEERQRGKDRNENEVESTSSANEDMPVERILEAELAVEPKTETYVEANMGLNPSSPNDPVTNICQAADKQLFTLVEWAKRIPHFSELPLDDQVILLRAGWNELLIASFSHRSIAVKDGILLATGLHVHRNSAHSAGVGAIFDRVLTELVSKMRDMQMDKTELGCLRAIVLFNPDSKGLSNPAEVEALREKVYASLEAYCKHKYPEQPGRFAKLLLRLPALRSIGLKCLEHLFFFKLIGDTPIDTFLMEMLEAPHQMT
UniProt Q92731, whole entry, looked up: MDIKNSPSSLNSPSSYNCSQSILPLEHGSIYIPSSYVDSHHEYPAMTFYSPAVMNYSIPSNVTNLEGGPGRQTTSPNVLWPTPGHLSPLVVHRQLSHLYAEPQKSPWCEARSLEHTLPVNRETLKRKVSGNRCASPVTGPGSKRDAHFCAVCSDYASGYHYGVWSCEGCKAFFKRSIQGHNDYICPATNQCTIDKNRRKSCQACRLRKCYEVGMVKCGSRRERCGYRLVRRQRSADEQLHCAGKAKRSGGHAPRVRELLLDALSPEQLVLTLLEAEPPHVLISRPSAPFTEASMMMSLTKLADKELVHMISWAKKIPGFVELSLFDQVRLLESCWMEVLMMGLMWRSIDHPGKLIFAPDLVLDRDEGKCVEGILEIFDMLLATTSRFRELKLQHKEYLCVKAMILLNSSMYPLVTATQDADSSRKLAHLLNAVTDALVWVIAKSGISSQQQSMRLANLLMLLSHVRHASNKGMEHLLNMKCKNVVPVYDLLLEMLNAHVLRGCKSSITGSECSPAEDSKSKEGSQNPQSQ

The nature of experiment [1]: CEETOX_H295R_OHPREG: CeeTox H295R High-throughput Steroidogenesis Assay for OH-Pregnenolone (OHPREG) (AID 2283434). The note with it: actives raise or lower the signal.
A short description of experiment [2]: CEETOX_H295R_ESTRADIOL: CeeTox H295R High-throughput Steroidogenesis Assay for Estradiol (AID 2283440).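 Further: estradiol secreted into medium quantified by LC-MS/MS after dansyl derivatisation.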 The following applies: actives raise or lower the signal. The essentials: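 Estradiol secreted into the medium was measured by tandem mass spectrometry after liquid-liquid extraction and dansylation. Human H295R cells had been forskolin-primed (10 uM, 48 h) before a 48 h chemical exposure with 0.1% DMSO.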

Experiment [3] can be described thus: CEETOX_H295R_PROG: CeeTox H295R High-throughput Steroidogenesis Assay for Progesterone (PROG) (AID 2283442). The following applies: actives raise or lower the signal. The essentials:
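Steps: seed H295R cells and let them adhere overnight; prime 48 h with 10 uM forskolin; dose with compound in DMSO at 0.1% final for 48 h; extract medium steroids with MTBE; measure progesterone by LC-MS/MS. MTT viability was run in the same wells.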

The target in experiment [4] is Bile acid receptor (Homo sapiens) (UniProt Q96RI1). The experiment can be described thus: OT_FXR_FXRSRC1_0480: Odyssey Thera (OT) 8-hour HEK293T Protein-Complementation Assay for Farnesoid X receptor/SRC-1 Co-activator (AID 2283383; active means hit-call score of the fitted dose curve at least 0.9, where 1 is the maximum). The essentials: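 Fluorescence intensity read-out, 8 h post-dose, HEK293T protein-fragment complementation; FXR bait and SRC-1 prey each linked to reporter fragments. Activity scored as signal increase over DMSO negative control.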

Experiment [5] has as its target Peroxisome proliferator-activated receptor gamma (Homo sapiens) (UniProt P37231). Briefly: ATG_hPPARg_XSP2: Attagene TRANS-FACTORIAL Multi-Species (XSP2) HepG2 Assay for human Peroxisome Proliferator-activated Receptor gamma (PPARg) (AID 2283829; active means hit-call score of the fitted dose curve at least 0.9, where 1 is the maximum;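 further: actives raise reporter mRNA above DMSO so AC50 reflects PPARg activation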). The essentials:
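After transfecting HepG2 with GAL4-UAS reporter constructs, cells are dosed for 24 h; total RNA is reverse-transcribed, PCR-amplified, FAM-labeled, HpaI-digested and resolved by capillary electrophoresis. Activity is measured as mRNA induction relative to DMSO.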

Experiment [6] has the same target. Briefly: OT_PPARg_PPARgSRC1_0480: Odyssey Thera (OT) 8-hour Protein-Complementation Assay for Peroxisome Proliferator-activated Receptor Gamma / SRC-1 Co-activator (AID 2283387; active means hit-call score of the fitted dose curve at least 0.9, where 1 is the maximum;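 further: nuclear to cytoplasmic split Venus YFP fluorescence ratio reporting PPARg SRC-1 interaction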). The essentials: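 Protein-fragment complementation in HEK293T: Venus YFP halves (residues 1-158, 159-239, mutated to IFP1/IFP2) fused to PPARg/SRC-1. 8 h exposure; N/C ratio at 488 nm; DMSO negative control.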

Read-out in a further experiment: CYP3A5 (gene 1577)
Briefly: LTEA_HepaRG_CYP3A5: Life Technologies and Expression Analysis (LTEA) Assay for CYP3A5 using HepaRG (AID 2283493). The following applies: actives raise or lower the signal; mRNA level, 48 h. The essentials: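 qRT-PCR read-out: CYP3A5 transcript in HepaRG lysates, housekeeping-normalized (ACTB/GAPDH/POLR2A), fitted bidirectionally against 0.5% DMSO baseline. Exposure 48 h, eight half-log concentrations up to 100 uM, duplicates.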

Read-out in experiment [7]: Lipoprotein lipase (LPL), LPL (gene 4023)
The experiment can be described thus: LTEA_HepaRG_LPL: Life Technologies and Expression Analysis (LTEA) Assay for Lipoprotein lipase (LPL) using HepaRG (AID 2283515). The following applies: actives raise or lower the signal; mRNA level, 48 h. The essentials:
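HepaRG, 48 h exposure, 8-pt half-log dilutions from 100 uM, 0.5% DMSO vehicle, duplicates; qRT-PCR (Fluidigm array) of LPL mRNA vs housekeeping genes; bidirectional curve fit relative to DMSO baseline.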

Read-out in experiment [8]: sulfotransferase (SULT2A), SULT2A1 (gene 6822)
Briefly: CLD_SULT2A_24hr: CellzDirect (CLD) Gene Expression Assay for sulfotransferase (SULT2A) at 24 hours (AID 2283694; active means hit-call score of the fitted dose curve at least 0.9, where 1 is the maximum). The essentials: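 mRNA is measured by qNPA: probe hybridisation, S1 nuclease digestion, chemiluminescence, in lysates from human primary hepatocytes harvested 24 h after daily dosing. Vehicle was 0.2% DMSO. Phase-contrast microscopy flagged cytotoxicity (yes/no).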

Read-out in experiment [9]: xenobiotic metabolism (CYP1A1), CYP1A1 (gene 1543)
Briefly: CLD_CYP1A1_48hr: CellzDirect (CLD) Gene Expression Assay for xenobiotic metabolism (CYP1A1) at 48 hours (AID 2283705; active means hit-call score of the fitted dose curve at least 0.9, where 1 is the maximum). The essentials: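 CYP1A1 transcript measured by quantitative nuclease protection (chemiluminescent) 48 h after two daily treatments of human hepatocyte cultures, versus 0.2% DMSO. Morphology-based cytotoxicity flags accompany data; two donor preparations used.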

For experiment [10], the target named is Estrogen receptor (Homo sapiens) (UniProt P03372). The experiment can be described thus: OT_ERa_GFPERaERE_0120: Odyssey Thera (OT) 2-hour HeLa Transcription Induction Assay for Estrogen Receptor (AID 2283382; active means hit-call score of the fitted dose curve at least 0.9, where 1 is the maximum). The essentials:
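Fluorescence microscopy read-out: inducible fluorescent protein reporter in HeLa cells, imaged 2 h post-dose. Signal increase over DMSO negative control fitted as single primary endpoint via high content image analysis.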

Experiment [11] in a line: CEETOX_H295R_11DCORT: CeeTox H295R High-throughput Steroidogenesis Assay for 11-Deoxycortisol (11DCORT) (AID 2283432). The following applies: actives raise or lower the signal. The essentials:
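Adrenal carcinoma line H295R, run per OECD 456 with minor changes, was forskolin-stimulated (10 uM, 48 h) before a 48 h chemical exposure at 0.1% DMSO. Secreted 11-deoxycortisol was quantified by HPLC-MS/MS.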

Experiment [12] can be described thus: CEETOX_H295R_OHPROG: CeeTox H295R High-throughput Steroidogenesis Assay for OH-Progesterone (OHPROG) (AID 2283435). The following applies: actives raise or lower the signal.
Experiment [13] in a line: CEETOX_H295R_CORTISOL: CeeTox H295R High-throughput Steroidogenesis Assay for Cortisol (AID 2283438).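 Further: cortisol secreted into medium quantified by LC-MS/MS.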 The note with it: actives raise or lower the signal. The essentials: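 Read-out: cortisol in culture medium by reverse-phase C18 HPLC with ESI-positive tandem MS, after MTBE liquid-liquid extraction. Cells: human adrenal H295R, forskolin-primed (10 uM, 48 h) before 48 h chemical exposure in 0.1% DMSO.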

Read-out in the next experiment: CYP2E1 (gene 1571)
The experiment can be described thus: LTEA_HepaRG_CYP2E1: Life Technologies and Expression Analysis (LTEA) Assay for CYP2E1 using HepaRG (AID 2283485). The note with it: actives raise or lower the signal; mRNA level, 48 h. The essentials: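 CYP2E1 transcript was measured by TaqMan qRT-PCR in human HepaRG cultures after 48 h chemical exposure (top 100 uM, half-log steps, 0.5% DMSO vehicle). Housekeeping-gene normalization; gain or loss fitted relative to DMSO baseline.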

Experiment [14] deals with Retinoic acid receptor RXR-alpha (Homo sapiens) (UniProt P19793). Briefly: OT_NURR1_NURR1RXRa_0480: Odyssey Thera (OT) 8-hour HEK293T Protein Complementation Assay for Nurr1/retinoid X receptor (RXR) (AID 2283385; active means hit-call score of the fitted dose curve at least 0.9, where 1 is the maximum). The essentials: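 Read-out: fluorescence from protein-fragment complementation between Nurr1 and RXRα in human HEK293T cells, 8 h after dosing. DMSO served as negative control; increased signal counted as activity.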

Experiment [15] deals with Peroxisome proliferator-activated receptor gamma (Homo sapiens) (UniProt P37231). The experiment can be described thus: OT_PPARg_PPARgSRC1_1440: Odyssey Thera (OT) 24-hour Protein-Complementation Assay for Peroxisome Proliferator-activated Receptor Gamma/ SRC-1 Co-activator (AID 2283388; active means hit-call score of the fitted dose curve at least 0.9, where 1 is the maximum;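 further: nuclear to cytoplasmic ratio of reconstituted Venus YFP fluorescence in fixed imaged cells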). The essentials: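 Protein-fragment complementation between PPARg and coactivator SRC-1 was measured by fluorescence imaging in transiently transfected HEK293T cells after 24 h treatment. Signal was quantified as N/C ratio in the 488 nm channel, with DMSO as negative control.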

A short description of experiment [16]: ACEA_AR_agonist_AUC_viability: ACEA Biosciences xCELLigence Real-Time Cell Analysis on Androgen Receptor Agonism for Viability (AID 2283775; active means hit-call score of the fitted dose curve at least 0.9, where 1 is the maximum). The essentials: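 Viability endpoint from xCELLigence impedance in 22Rv1 prostate cells at 80 h. Eight-point series, 100 uM maximum final.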
For experiment [17], the target named is Estrogen receptor beta (Homo sapiens) (UniProt Q92731). Briefly: OT_ER_ERbERb_1440: Odyssey Thera (OT) 24-hour HEK293T Protein-Complementation Assay for Estrogen Receptor-beta/-beta Homodimer (AID 2283380; active means hit-call score of the fitted dose curve at least 0.9, where 1 is the maximum;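 further: scored as signal increase over DMSO baseline for both agonists and antagonists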). The essentials:
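HEK293T cells stably expressing ER beta LBD (aa 310-547) homodimer fragment-complementation reporter, dosed 24 h. Cells formaldehyde-fixed, Draq5-stained; gain in nuclear (agonist) or nuclear plus cytoplasmic (antagonist) fluorescence versus DMSO read by laser scanning cytometry.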

Experiment [18] has as its target Retinoic acid receptor RXR-alpha (Homo sapiens) (UniProt P19793). The experiment can be described thus: OT_NURR1_NURR1RXRa_1440: Odyssey Thera (OT) 24-hour HEK293T Protein Complementation Assay for Nurr1/retinoid X receptor (RXR) (AID 2283386; active means hit-call score of the fitted dose curve at least 0.9, where 1 is the maximum). The essentials:
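Fluorescence PCA read-out; HEK293T; 24 h post-dose; bait/prey fused to reporter fragments; gain-of-signal fit vs DMSO negative control.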

Read-out in experiment [19]: CFLAR gene, CFLAR (gene 8837)
Briefly: LTEA_HepaRG_CFLAR: Life Technologies and Expression Analysis (LTEA) Assay for CFLAR gene using HepaRG (AID 2283455). The note with it: actives raise or lower the signal; mRNA level, 48 h. The essentials: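 qRT-PCR read-out (Fluidigm/TaqMan) of CFLAR mRNA, normalized to three housekeeping genes, in differentiated human HepaRG cells after 48 h chemical exposure; 8-point half-log series from 100 uM in 0.5% DMSO; bidirectional curve fitting versus DMSO.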

Read-out in experiment [20]: Pro-epidermal growth factor (Homo sapiens) (UniProt P01133)
The experiment can be described thus: LTEA_HepaRG_EGF: Life Technologies and Expression Analysis (LTEA) Assay for Epidermal growth factor (EGF) using HepaRG (AID 2283489). The following applies: actives raise or lower the signal; mRNA level, 48 h. The essentials: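 HepaRG, 48 h dosing, 100 uM top, half-log x8, 0.5% DMSO. Readout: TaqMan qRT-PCR (Fluidigm array), housekeeping-normalized. Gain or loss of signal fit vs DMSO.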

Read-out in experiment [21]: Insulin-like growth factor-binding protein 1 (IGFBP1), IGFBP1 (gene 3484)
The experiment can be described thus: LTEA_HepaRG_IGFBP1: Life Technologies and Expression Analysis (LTEA) Assay for Insulin-like growth factor-binding protein 1 (IGFBP1) using HepaRG (AID 2283508). The following applies: actives raise or lower the signal; mRNA level, 48 h. The essentials: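 Thawed HepaRG cells are plated for 48 h, switched to serum-free induction medium, then dosed in duplicate for another 48 h (100 uM top, half-log steps). Lysates in RLT go to qRT-PCR, and gain or loss of signal is fitted relative to vehicle.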

Read-out in experiment [22]: X-box binding protein 1 (XBP1), XBP1 (gene 7494)
The experiment can be described thus: LTEA_HepaRG_XBP1: Life Technologies and Expression Analysis (LTEA) Assay for X-box binding protein 1 (XBP1) using HepaRG (AID 2283540). The following applies: actives raise or lower the signal; mRNA level, 48 h. The essentials: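 Transcript levels of XBP1, measured by qRT-PCR and normalised to three housekeeping genes, were fitted bidirectionally relative to 0.5% DMSO controls. Human HepaRG cells received eight-point half-log dilutions from 100 uM for 48 h.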

For some of these results: What follows is the remainder of the data, with few or none of the hits. Records with an inconclusive call do not appear. More than one record can exist for a structure, and the calls need not agree. Only a part is listed here, and it is no random draw. The source made the active and inactive calls. How the source made its calls, unless noted: active means hit-call score of the fitted dose curve at least 0.9, where 1 is the maximum; inactive means score below 0.9.

Consider `CCOc1cc(C(C)(C)C)ccc1C1COC(c2c(F)cccc2F)=N1` (stereo not given), for which the outcome in experiment [1], in [2] and in [3] was inactive.
In the case of `CC(C)C1CCC(Cc2ccc(Cl)cc2)C1(O)Cn1cncn1` (stereo not given), the AC50 in experiment [4] is active: 11.1 µM. The result in [5] was inactive.
As to `Oc1ccccc1-c1ccccc1`, the result (in [6]; with CYP3A5 (gene 1577); in [7]; in experiment [8]) was inactive. Moreover, the AC50 in experiment [9] is active: 20 µM.
For the compound `O=[N+]([O-])C(Br)(CO)CO`, the call in experiment [10] was inactive.
In the case of `[As]#[In]`, the call (in [11]; in experiment [12]; in experiment [13]; in the experiment with CYP2E1 (gene 1571)) was inactive.
For the compound `O=C(NC(=O)c1c(F)cccc1F)Nc1ccc(Oc2ccc(C(F)(F)F)cc2Cl)cc1F`, the AC50 in experiment [14] was active: 33.9 µM.
Turning to `O=c1nc(O)n(Cl)c(=O)n1Cl`, the result in [15] and in experiment [16] was inactive.
As to `Cc1ccc(N)cc1Cl`, the compound was classed as inactive in [17] and in experiment [18].
With `CC(C)N(Cc1ccccc1)C(=O)C(C)(C)C`, the compound was classed as inactive in experiment [18], in experiment [19], in experiment [20], in [21] and in [22].

As a reminder, the AC50 is the concentration at which the activity in the assay is half-maximal.
